Experimental data from PubChem BioAssay (Tox21).
Values joined by “and” are separate entries in the source; they are usually repeats but may differ in a detail not shown here. Identical values can stand only once. Inconclusive means that the source gave no clear call. Such entries were picked first, then a sample of the others. Where a call stands in place of a potency, no number is given. For part of these data: Potencies beside an inconclusive call are fits to weak or partial responses and may not hold up. Active and inactive are the calls of the source. Unless noted, calls come from the whole dose curve.

Sequences of proteins named here, by UniProt entry; tags and fusion partners are left off.
UniProt P14416, whole entry, looked up: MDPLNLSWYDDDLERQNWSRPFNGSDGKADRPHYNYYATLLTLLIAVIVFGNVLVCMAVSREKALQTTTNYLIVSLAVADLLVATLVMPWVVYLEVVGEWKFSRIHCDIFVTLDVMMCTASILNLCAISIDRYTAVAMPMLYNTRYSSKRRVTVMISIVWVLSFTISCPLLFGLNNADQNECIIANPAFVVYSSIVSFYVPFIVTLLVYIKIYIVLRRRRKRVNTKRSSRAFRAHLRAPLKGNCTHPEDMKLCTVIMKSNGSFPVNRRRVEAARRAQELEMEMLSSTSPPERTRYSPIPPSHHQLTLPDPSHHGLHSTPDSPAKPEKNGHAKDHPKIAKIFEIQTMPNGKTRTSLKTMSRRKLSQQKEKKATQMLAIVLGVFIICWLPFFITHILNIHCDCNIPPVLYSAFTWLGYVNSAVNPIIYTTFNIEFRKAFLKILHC

Tests used:
[1] = cAMP Responsive Elements (CRE) small molecule antagonists, cell-based qHTS assay (AID 1963591; active = well fitted inhibition curve with a large enough effect in the signal ratio in the repeat runs, not every such curve was filed as active; inconclusive = weak or mixed curves, or effect the other way; the % refers to the signal ratio; note: potency is the fitted concentration of half-maximal effect); conditions: CRE-bla HEK293T, beta-lactamase FRET ratio; activity change, negative = inhibition: at 92.4 µM (top of the series) unless noted
Procedure, shortened: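 HEK293T CRE-bla; 18 h preincubation; compound pin-transfer; NKH477 0.25 uM final, 3 h, 37 C; LiveBLAzer FRET substrate 2 h RT.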

[2] = molecular target: Beta-2 adrenergic receptor (Homo sapiens) (UniProt P07550); experiment: Adrenergic beta2 receptor (ADRB2) small molecule agonists, cell-based qHTS assay (AID 1963593); conditions: CHO-ADRB2 cells, cAMP HTRF, 30 min; note: potency is the fitted concentration of half-maximal effect;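 for activation: CHO cells stably overexpressing human ADRB2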
Procedure, shortened: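 CHO cells stably over-expressing ADRB2 were plated overnight at 37C, then dosed with compounds plus a stimulation mix containing 100uM IBMX and 25uM Ro-20-1724 for 0.5hr at room temperature. cAMP was measured by HTRF competition, 1hr.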

[3] = molecular target: D(2) dopamine receptor (Homo sapiens) (UniProt P14416); experiment: Dopamine D2 receptor (DRD2) small molecule agonists, cell-based qHTS assay (AID 1963594); conditions: HEK293-DRD2 cAMP HTRF, agonist mode, 30 min; activation: at 92.4 µM (top of the series) unless noted; note: nearly all actives have a fitted effect of over 35% in size; note: potency is the fitted concentration of half-maximal effect
Procedure, shortened: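 HEK293 cells stably expressing DRD2 were cultured 24 h at 37 C, then given Ro20-1724 (0.1 mM final) and compounds for 10 min at room temperature. NKH477 (200nM) was then added for 30 min. cAMP was read by HTRF.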

[4] = molecular target: D(2) dopamine receptor (Homo sapiens) (UniProt P14416); experiment: Dopamine D2 receptor (DRD2) small molecule antagonists, cell-based qHTS assay (AID 1963595; active = well fitted inhibition curve with a large enough effect in the signal ratio in the repeat runs, with a control signal flat; inconclusive = weak or mixed curves, or effect the other way; the % refers to the signal ratio); conditions: HEK293-DRD2 cAMP HTRF antagonist mode; activity change, negative = inhibition: at 92.4 µM (top of the series) unless noted
Procedure, shortened: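 Antagonist mode in DRD2-HEK293 cells: after compound addition with 0.1 mM Ro20-1724, cells received quinpirole (12 nM) and NKH477 (200 nM) for 30 min at room temperature; HTRF cAMP read after 1 h detection.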

[5] = activation: at 92.4 µM (top of the series) unless noted

With CC(C)CCCC(=O)O the Potency [1] was “inactive” and the activation [2, 5] was inconclusive: 1.31%.
In the case of C=C(C)c1ccccc1, the Potency [1] is reported as “inactive” and the Potency [2, 5] is reported as inconclusive: 27.3 µM [activator, single point].
With CN(C)CCCO[C@@H]1[C@H]2OC(C)(C)O[C@H]2O[C@@H]1C(O)CO (stereo not given in full) the Potency [1] was inconclusive: 0.0019 µM [falling, full curve, poor fit] and the Potency [2, 5] was “inactive”.
In the case of CC1(C)[C@H](C(=O)O)N2C(=O)C[C@H]2S1(=O)=O, the Potency [1] is reported as active: 1.33 µM and the activation [2, 5] is reported as inconclusive: 0.161% [at 42.5 µM].
In the case of CN(C)CC[C@@H](c1ccc(Cl)cc1)c1ccccn1, the Potency [1] is reported as “inactive” and the activation [2, 5] is reported as inconclusive: 12.1% [at 42.5 µM].
With C=CCON/C(CCC)=C1\C(=O)CC(C)(C)C(C(=O)OC)=C1O the Potency [1] was “inactive” and the activation [2, 5] was inconclusive: 1%.
In the case of CNC(=O)Nc1ccc(Cl)c(Cl)c1, the Potency [1] is reported as “inactive” and the Potency [2, 5] is reported as “inactive”.
For COc1cc(/C=C/C(=O)O[C@H]2CC[C@]34C[C@]35CC[C@]3(C)[C@@H]([C@H](C)CCC=C(C)C)CC[C@@]3(C)[C@@H]5CC[C@H]4C2(C)C)ccc1O, the Potency [1] was “inactive” and the activation [2, 5] was inconclusive: 3.26% [at 42.5 µM].
In the case of NC(=O)Nc1ccc(Cl)c(Cl)c1, the Potency [1] is reported as inconclusive: 54.3 µM [inhibitor] and the Potency [2, 5] is reported as “inactive”.
With COC(=O)c1cc(C(=O)OC)cc(S(=O)(=O)O)c1 the Potency [1] was “inactive” and the activation [2, 5] was inconclusive: -14.1%.
For COc1cc2c(Nc3ccc(Br)cc3F)ncnc2cc1OCC1CCN(C)CC1, the Potency [1] was “inactive” and the Potency [2, 5] was inconclusive: 0.668 µM [inhibitor, full curve, poor fit].
For C/C(C=O)=C\c1ccccc1, the Potency [1] was “inactive” and the activation [2, 5] was inconclusive: 11.8%.
For CC(C)=CC=O, the activity change, negative = inhibition [1] was inconclusive: -11.3% and the Potency [2, 5] was “inactive”.
For CCNc1nc(N)nc(Cl)n1, the Potency [1] was “inactive” and the activation [2, 5] was inconclusive: -5.43%.
With COc1ccccc1C=O the Potency [1] was “inactive” and the Potency [2, 5] was “inactive”.
For COC(=O)/C=C\C(=O)O, the Potency [1] was “inactive” and the Potency [2, 5] was inconclusive: 0.686 µM [inhibitor, full curve].
In the case of NCCCC(O)(P(=O)(O)O)P(=O)(O)O, the Potency [1] is reported as “inactive” and the Potency [2, 5] is reported as “inactive”.
With S=c1[nH][nH]c(=S)s1 the activity change, negative = inhibition [1] was inconclusive: 19.5% and the activation [2, 5] was inconclusive: -30.2%.
With CC1(C)C2=CCCC(C)(C)[C@]23CC[C@H]1C3 the Potency [1] was “inactive” and the Potency [2, 5] was “inactive”.
In the case of COC(C)(OC)OC, the activity change, negative = inhibition [1] is reported as inconclusive: 3.34% and the activation [2, 5] is reported as inconclusive: -9.33%.
In the case of C=Cc1ccccn1, the Potency [1] is reported as “inactive” and the Potency [2, 5] is reported as inconclusive: 6.93 µM [inhibitor, single point].
With CCn1cc(C(=O)O)c(=O)c2cnc(N3CCNCC3)nc21 the Potency [1] was “inactive” and the Potency [2, 5] was inconclusive: 9.44 µM.
With COC(=O)c1ccccc1C(=O)O the Potency [1] was “inactive” and the Potency [2, 5] was “inactive”.
In the case of CCCCCCCCCCCCCCCC(=O)OC, the activity change, negative = inhibition [1] is reported as inactive: -6.58% [at 18.9 µM] and the activation [2, 5] is reported as inconclusive: 4.6% [at 19 µM].
For N[C@@H](CSCCCO)C(=O)O, the activity change, negative = inhibition [1] was inactive: 4.42% [at 18.9 µM] and the Potency [2, 5] was inconclusive: 1.46 µM [inhibitor, single point].
With O=C(O)Cc1ccc(OCCNC[C@H](O)c2ccccc2)cc1 the Potency [1] was “inactive” and the activation [2, 5] was inconclusive: 13.9% [at 42.5 µM].
For CCN(CC)c1ccc(C=O)c(O)c1, the Potency [1] was “inactive” and the Potency [2, 5] was “inactive”.
With CCC1(c2cnc[nH]2)Cc2ccccc2C1 the Potency [1] was inconclusive: 26.6 µM [inhibitor, partial curve, poor fit] and the activation [2, 5] was inconclusive: -10.8% [at 42.5 µM].
With Cc1ccc(NC=O)c(C)c1 the activity change, negative = inhibition [1] was inconclusive: -3.54% and the Potency [2, 5] was “inactive”.
For O=Cc1ccc(C(=O)O)cc1, the Potency [1] was “inactive” and the Potency [2, 5] was “inactive”.
With Nc1nc2c(ncn2CCC(CO)CO)c(=O)[nH]1 the activity change, negative = inhibition [1] was inconclusive: -0.255% [at 42.4 µM], the Potency [2, 5] was “inactive” and the Potency [3] was inconclusive: 33.5 µM [falling, single point].
In the case of CN(C)Cc1ccccc1, the Potency [1] is reported as “inactive”, the Potency [2, 5] is reported as “inactive” and the Potency [3] is reported as “inactive”.
With CC(C)CC(O)CC(C)C the Potency [1] was “inactive”, the Potency [2, 5] was “inactive” and the Potency [3] was “inactive”.
With COC(=O)c1ccc(C(=O)OC)c(C(=O)OC)c1 the Potency [1] was inconclusive: 12.8 µM [activator, partial curve] and the Potency [2, 5] was “inactive”.
With CN1[C@@H]2CC(OC(=O)[C@H](CO)c3ccccc3)C[C@H]1[C@@H]1O[C@@H]12 (stereo not given in full) the Potency [1] was “inactive”, the activation ([2]; at 42.5 µM (top of the series)) was inconclusive: -31.5% and the activation ([2]; at 92.4 µM (top of the series)) was inconclusive: 23.9% and inconclusive: 6.96% and inactive: 6.27%. The activity change, negative = inhibition [4] was inconclusive: -2.87%.
With NC[C@H]1O[C@H](O[C@H]2[C@H](O[C@@H]3O[C@H](CO)[C@@H](O)[C@H]3O)C(O)[C@H](N)C[C@@H]2N)[C@H](N)[C@@H](O)[C@@H]1O (stereo not given in full) the activity change, negative = inhibition [1] was inconclusive: -1.8% [at 8.39 µM], the Potency [2, 5] was inconclusive: 0.137 µM [inhibitor, single point] and the activation [3] was inconclusive: -38.3% [at 8.39 µM].
With OC(CCN1CCCC1)(c1ccccc1)C1CCCCC1 (stereo not given) the activity change, negative = inhibition [1] was inconclusive: -1.24% [at 42.4 µM], the activation [2, 5] was inconclusive: 21.6% [at 42.5 µM] and the Potency [3] was “inactive”.
In the case of CC(=O)Nc1c(I)cc(I)c(C(=O)O)c1I, the Potency [1] is reported as “inactive”, the activation [2, 5] is reported as inconclusive: 1.35% [at 42.5 µM] and the Potency [3] is reported as “inactive”.
In the case of C=CCc1ccc(O)c(OC)c1, the Potency [1] is reported as “inactive”, the activation [2, 5] is reported as inconclusive: 2.12% and the activation ([2]; at 42.5 µM (top of the series)) is reported as inactive: 14.8%. The activation ([2]; at 92.4 µM (top of the series)) was inactive: 2.89%.
With CNC1CCCN(c2c(F)cc3c(=O)c(C(=O)O)cn(C4CC4)c3c2OC)C1 (stereo not given) the Potency [1] was “inactive”, the activation [2, 5] was inconclusive: -5.21% [at 42.5 µM] and the Potency [3] was inconclusive: 29.8 µM [rising, partial curve].
With CCC=CC#N the activity change, negative = inhibition [1] was inconclusive: -0.0219%, the activation [2, 5] was inconclusive: -29.6% and the Potency [3] was “inactive”.
In the case of [Cu+], the Potency [1] is reported as “inactive”, the activation [2, 5] is reported as inconclusive: -5.21% and the Potency [3] is reported as inconclusive: 0.0034 µM [rising, full curve, poor fit].
For Nc1ncnc2c1ncn2Cc1c(F)cccc1Cl, the Potency [1] was “inactive”, the Potency [2, 5] was “inactive” and the Potency [3] was inconclusive: 33.5 µM.
For CCCCCCCCCCCCCCC[C@H](O)[C@@H](N)CO, the Potency [1] was “inactive”, the Potency [2, 5] was “inactive” and the Potency [3] was inconclusive: 23.7 µM [rising, partial curve, poor fit].
With Cc1nnc(SCC2=C(C(=O)O)N3C(=O)[C@@H](NC(=O)Cn4cnnn4)[C@H]3SC2)s1 the Potency [1] was “inactive” and the Potency [2, 5] was “inactive”.
